This passage reports binding results from paper PMC4408008.

Amino acid sequences for entries named in this document (tags omitted).
UniProt Q12888: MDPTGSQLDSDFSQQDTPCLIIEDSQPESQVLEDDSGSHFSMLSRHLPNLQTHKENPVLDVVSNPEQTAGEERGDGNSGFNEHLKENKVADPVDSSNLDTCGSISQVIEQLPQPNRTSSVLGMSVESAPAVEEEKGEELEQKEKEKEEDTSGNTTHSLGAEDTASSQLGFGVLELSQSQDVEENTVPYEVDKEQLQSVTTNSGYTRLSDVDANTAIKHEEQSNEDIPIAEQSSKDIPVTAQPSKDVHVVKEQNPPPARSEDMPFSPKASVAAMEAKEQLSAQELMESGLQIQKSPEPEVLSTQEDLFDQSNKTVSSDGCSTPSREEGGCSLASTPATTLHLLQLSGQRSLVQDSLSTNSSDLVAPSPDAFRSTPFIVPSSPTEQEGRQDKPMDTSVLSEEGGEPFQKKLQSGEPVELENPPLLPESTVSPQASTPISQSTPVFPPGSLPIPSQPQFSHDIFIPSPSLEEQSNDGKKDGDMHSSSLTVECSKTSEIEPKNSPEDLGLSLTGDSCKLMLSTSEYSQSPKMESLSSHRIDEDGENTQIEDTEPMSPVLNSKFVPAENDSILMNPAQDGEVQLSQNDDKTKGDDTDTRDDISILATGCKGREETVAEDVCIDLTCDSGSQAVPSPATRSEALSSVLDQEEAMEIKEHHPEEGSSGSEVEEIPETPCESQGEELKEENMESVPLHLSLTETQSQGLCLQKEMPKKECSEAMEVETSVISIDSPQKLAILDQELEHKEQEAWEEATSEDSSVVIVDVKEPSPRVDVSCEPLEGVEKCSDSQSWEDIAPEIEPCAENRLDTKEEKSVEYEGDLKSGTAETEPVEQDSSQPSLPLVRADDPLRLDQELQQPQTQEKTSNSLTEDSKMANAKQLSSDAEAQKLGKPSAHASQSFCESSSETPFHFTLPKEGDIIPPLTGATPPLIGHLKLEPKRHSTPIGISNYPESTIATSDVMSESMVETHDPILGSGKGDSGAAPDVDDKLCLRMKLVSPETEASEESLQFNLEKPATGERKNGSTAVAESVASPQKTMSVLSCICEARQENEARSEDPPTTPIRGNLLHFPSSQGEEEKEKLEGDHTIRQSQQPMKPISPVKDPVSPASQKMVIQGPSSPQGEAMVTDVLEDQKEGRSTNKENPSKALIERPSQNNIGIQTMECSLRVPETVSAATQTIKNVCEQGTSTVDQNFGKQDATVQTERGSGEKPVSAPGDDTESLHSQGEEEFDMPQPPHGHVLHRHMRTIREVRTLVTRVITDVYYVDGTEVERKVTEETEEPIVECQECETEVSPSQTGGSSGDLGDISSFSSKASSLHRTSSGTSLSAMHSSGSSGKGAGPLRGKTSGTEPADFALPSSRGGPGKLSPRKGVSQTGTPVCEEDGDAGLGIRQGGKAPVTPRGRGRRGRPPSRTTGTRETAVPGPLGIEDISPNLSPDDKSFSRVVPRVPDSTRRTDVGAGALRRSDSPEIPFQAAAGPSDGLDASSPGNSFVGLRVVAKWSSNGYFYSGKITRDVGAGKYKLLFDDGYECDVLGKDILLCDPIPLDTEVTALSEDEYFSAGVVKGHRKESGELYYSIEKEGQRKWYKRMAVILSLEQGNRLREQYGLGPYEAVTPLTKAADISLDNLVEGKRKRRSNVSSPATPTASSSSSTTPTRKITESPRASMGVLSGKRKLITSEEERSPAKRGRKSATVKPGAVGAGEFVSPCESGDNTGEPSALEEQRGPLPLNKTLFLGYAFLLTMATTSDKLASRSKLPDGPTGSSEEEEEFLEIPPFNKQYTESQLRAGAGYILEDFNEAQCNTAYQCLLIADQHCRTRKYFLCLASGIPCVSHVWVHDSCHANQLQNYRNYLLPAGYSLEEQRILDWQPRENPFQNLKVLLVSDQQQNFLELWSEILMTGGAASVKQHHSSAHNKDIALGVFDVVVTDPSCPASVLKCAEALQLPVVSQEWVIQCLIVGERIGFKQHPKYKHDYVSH

In the assay the target is p53-binding protein 1 (53BP1), endogenous (human (endogenous in HEK293T)) (UniProt Q12888). Put plainly: co-IP; FLAG-tagged WT-KAP1 or 4KR in KAP1 depleted HEK293T cells, harvested 1 hour following 10Gy-IR (with or without IR), anti-53BP1 immunoprecipitation, immunoblotting. (In general: In western blotting, separated proteins are transferred to a membrane and probed.)

Results are given in words; binding and its absence hold for the method and conditions named. In cells and extracts the contact can be indirect. Some binding calls cover weakened binding; strength is not graded here. Sequences can lack the tags named with a protein.

B1: FLAG-tagged KAP1 4KR mutant (protein, UniProt Q13263 1-835)
chain: MAASAAAASAAAASAASGSPGPGEGSAGGEKRSTAPSAAASASASAAASSPAGGGAEALELLEHCGVCRERLRPEREPRLLPCLHSACSACLGPAAPAAANSSGDGGAAGDGTVVDCPVCKQQCFSKDIVENYFMRDSGSKAATDAQDANQCCTSCEDNAPATSYCVECSEPLCETCVEAHQRVKYTKDHTVRSTGPAKSRDGERTVYCNVHKHEPLVLFCESCDTLTCRDCQLNAHKDHQYQFLEDAVRNQRKLLASLVKRLGDRHATLQKSTKEVRSSIRQVSDVQKRVQVDVKMAILQIMKELNKRGRVLVNDAQKVTEGQQERLERQHWTMTKIQKHQEHILRFASWALESDNNTALLLSKKLIYFQLHRALRMIVDPVEPHGEMKFQWDLNAWTKSAEAFGKIVAERPGTNSTGPAPMAPPRAPGPLSKQGSGSSQPMEVQEGYGFGSGDDPYSSAEPHVSGVRRSRSGEGEVSGLMRKVPRVSLERLDLDLTADSQPPVFKVFPGSTTEDYNLIVIERGAAAAATGQPGTAPAGTPGAPPLAGMAIVKEEETEAAIGAPPTATEGPETKPVLMALAEGPGAEGPRLASPSGSTSSGLEVVAPEGTSAPGGGPGTLDDSATICRVCQKPGDLVMCNQCEFCFHLDCHLPALQDVPGEEWSCSLCHVLPDLKEEDGSLSLDGADSTGVVAKLSPANQRKCERVLLALFCHEPCRPLHQLATDSTFSLDQPGGTLDLTLIRARLQEKLSPPYSSPQEFAQDVGRMFRQFNKLTEDKADVQSIIGLQRFFETRMNEAFGDTKFSAVLVEPPPMSLPGAGLSSQELSGGPGDGP
With B1, the binding result is “binds”.
